For assay [1], the target named is T1, recombinant MICA (rMICA) (UniProt Q29983).
T1 sequence (looked up): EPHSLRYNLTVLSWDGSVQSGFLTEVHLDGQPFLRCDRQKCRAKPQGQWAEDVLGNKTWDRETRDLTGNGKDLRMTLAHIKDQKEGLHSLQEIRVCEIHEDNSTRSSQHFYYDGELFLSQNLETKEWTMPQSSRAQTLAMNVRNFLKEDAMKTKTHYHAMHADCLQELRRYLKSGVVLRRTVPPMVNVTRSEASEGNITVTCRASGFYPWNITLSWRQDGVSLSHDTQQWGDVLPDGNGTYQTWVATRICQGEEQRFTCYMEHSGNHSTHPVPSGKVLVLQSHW
The assay can be described thus: phage ELISA on plates coated with rMICA. For orientation: ELISA stands for enzyme-linked immunosorbent assay.

Assay [2] deals with T2, native MICA on AGS and MKN-45 gastric cancer cells (human) (UniProt Q29983).
T2 sequence (looked up): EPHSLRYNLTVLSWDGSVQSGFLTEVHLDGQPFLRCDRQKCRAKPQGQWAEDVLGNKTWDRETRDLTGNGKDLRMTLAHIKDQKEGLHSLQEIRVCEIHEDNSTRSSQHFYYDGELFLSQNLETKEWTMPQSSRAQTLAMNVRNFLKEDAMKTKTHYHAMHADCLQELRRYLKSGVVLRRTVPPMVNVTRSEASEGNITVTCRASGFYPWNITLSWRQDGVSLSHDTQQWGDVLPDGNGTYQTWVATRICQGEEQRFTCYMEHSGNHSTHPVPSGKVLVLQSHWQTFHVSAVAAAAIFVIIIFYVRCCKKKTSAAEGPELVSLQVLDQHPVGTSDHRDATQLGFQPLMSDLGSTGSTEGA
The assay can be described thus: flow cytometry of phage clones on native MICA. (Flow cytometry measures light scatter and fluorescence of single cells or particles in a stream.)

The target of assay [3] is T1, recombinant MICA (rMICA). The assay is described as follows: ELISA on rMICA.

These are yes or no findings as the source states them, for the method shown. Some results given as binding are weak or reduced against the parent protein; the word gives no strength.

B1: viral particle that expresses anti-MICA scFv (scFv-aMICA-phage) (scFv, not shown: large carriers)
scFv: EFGVVMTQSPDFQSVTPKEKVTITCRASQSIGRSIHWYQQKPDQSPKLLVMYASQSFSGVPSRFSGSGSGTDFTLTINSLEAEDAATYYCHQSYSVPRSFGQGTKLEIKRTVAAGGSSRSSSSGGGGSGGGGQVQLQESGPGLVKPSQTLSLTCTVSGDSVRSAYSSWNWIRQPPGKGLEWIGQIHPNGNTYYNPSLMSRITVSIDTSKNQFSLKLDSVTAADTAVYFCATEGVTSESGSFDIWGQGRMVIVSSASTKGPSVAS
In the case of B1, the binding entry (in the assay with recombinant MICA (rMICA) [1]; in assay [2]) was “binds” throughout.

B2: anti-MICA scFv protein (scFv-aMICA) (scFv)
scFv: EFGVVMTQSPDFQSVTPKEKVTITCRASQSIGRSIHWYQQKPDQSPKLLVMYASQSFSGVPSRFSGSGSGTDFTLTINSLEAEDAATYYCHQSYSVPRSFGQGTKLEIKRTVAAGGSSRSSSSGGGGSGGGGQVQLQESGPGLVKPSQTLSLTCTVSGDSVRSAYSSWNWIRQPPGKGLEWIGQIHPNGNTYYNPSLMSRITVSIDTSKNQFSLKLDSVTAADTAVYFCATEGVTSESGSFDIWGQGRMVIVSSASTKGPSVAS
notes: Monomeric soluble scFv produced from the phagemid pUCH1 Amber; also called scFv-MICA
With B2, the binding entry with recombinant MICA (rMICA) [3] is given as “binds”.

Source of the values: patent publication US20210139593A1 (UNIVERSIDAD DE CHILE, published 2021).
